The list does not hold the whole screen: it is rich in T/C values a quarter to a half above the control, in often repeated tests (any T/C) and in doses without a T/C. Further doses and runs are listed elsewhere. T/C gives the treated animals as a percentage of the vehicle group. Some entries give survivors of the animals treated and no T/C: the source files T/C as zero there, which appears to mark a toxic dose or a test without result, not a measured value. Some survivor counts are full or nearly so, which does not show that the dose was tolerated: survival well below the control is almost never listed, so the zero probably covers shortened survival too. Survivors were counted at the toxicity check, usually on the fifth day, unless a day is given; later deaths do not show. Schedule codes are those of the source, read here as Q, the interval in days (D) or hours (H), X, the number of doses. Some doses were run more than once; their values stand side by side, smallest first. Some schedules carry Z or #; the key to these is not given. Where survival is the endpoint, the PubChem record calls one and a half times the control and up active, and a quarter to a half above the control has no call in these data; cut-offs in other NCI protocols can differ. Some T/C values carry the count of animals alive at the toxicity check (mostly the fifth day); where none is given, no animal had died by that day.
System: L1210 leukemia ip in BDF1 mice, survival T/C
Test: NCI In Vivo Anticancer Drug Screen. Data for tumor model L1210 Leukemia (intraperitoneal) in B6D2F1 (BDF1) mice
Details: higher T/C = longer survival
[1] = T/C endpoint: mean survival time, dose: 500.0 mg/kg/injection, schedule: Q01DX001 (ip), vehicle: saline

`O=P1(N(CCCl)CCCl)NCCCO1` (centres undefined) was tested, and the T/C (T/C endpoint: mean survival time, dose: 400.0 mg/kg/injection, schedule: Q01DX001 (ip), vehicle: saline, evaluated on day 63) was 357 % of control, the T/C (T/C endpoint: mean survival time, dose: 400.0 mg/kg/injection, schedule: Q01DX001 (ip), vehicle: saline, evaluated on day 64) was 108 % of control [6 of 8 alive] and the survivor count (T/C endpoint: mean survival time, dose: 400.0 mg/kg/injection, schedule: Q01DX001 (ip), vehicle: saline) was 6 of 10 and 8 of 8. For the same compound, the survivor count (T/C endpoint: mean survival time, dose: 400.0 mg/kg/injection, schedule: Q01DX006 (iv), vehicle: saline) was 5 of 6, the survivor count (T/C endpoint: mean survival time, dose: 400.0 mg/kg/injection, schedule: Q01DX Z (im), vehicle: saline) was 3 of 6 and the survivor count (T/C endpoint: mean survival time, dose: 400.0 mg/kg/injection, schedule: Q01DX Z (ip), vehicle: saline) was 0 of 6. The survivor count (T/C endpoint: mean survival time, dose: 400.0 mg/kg/injection, schedule: Q01DX Z (oral), vehicle: saline) was 4 of 6, the survivor count (T/C endpoint: mean survival time, dose: 400.0 mg/kg/injection, schedule: Q01DX Z (sc), vehicle: saline) was 1 of 6 and the T/C [1] was 138 and 193 % of control [4 of 6 alive]. For the same compound, the survivor count [1] was 2 of 6 and 5 of 6, the survivor count (T/C endpoint: mean survival time, dose: 500.0 mg/kg/injection, schedule: Q01DX001 (ip), vehicle: water) was 1 of 3 and the survivor count (T/C endpoint: mean survival time, dose: 500.0 mg/kg/injection, schedule: Q01DX001 (sc), vehicle: saline) was 5 of 8. For the same compound, the survivor count (T/C endpoint: mean survival time, dose: 500.0 mg/kg/injection, schedule: Q## X Z (sc), vehicle: saline) was 1 of 8, the survivor count (T/C endpoint: mean survival time, dose: 563.0 mg/kg/injection, schedule: Q07DX002 (ip), vehicle: saline) was 0 of 10 and the survivor count (T/C endpoint: mean survival time, dose: 600.0 mg/kg/injection, schedule: Q01DX006 (iv), vehicle: saline) was 1 of 6. For the same compound, the survivor count (T/C endpoint: mean survival time, dose: 600.0 mg/kg/injection, schedule: Q01DX Z (im), vehicle: saline) was 0 of 6, the survivor count (T/C endpoint: mean survival time, dose: 600.0 mg/kg/injection, schedule: Q01DX Z (ip), vehicle: saline) was 0 of 6 and the survivor count (T/C endpoint: mean survival time, dose: 600.0 mg/kg/injection, schedule: Q01DX Z (sc), vehicle: saline) was 0 of 6. The survivor count (T/C endpoint: mean survival time, dose: 600.0 mg/kg/injection, schedule: Q03DX Z (ip), vehicle: saline) was 4 of 6, the survivor count (T/C endpoint: mean survival time, dose: 800.0 mg/kg/injection, schedule: Q01DX001 (ip), vehicle: saline) was 0 of 6, 1 of 6, 2 of 6 and the survivor count (T/C endpoint: mean survival time, dose: 800.0 mg/kg/injection, schedule: Q01DX Z (ip), vehicle: saline) was 0 of 6. For the same compound, the survivor count (T/C endpoint: mean survival time, dose: 850.0 mg/kg/injection, schedule: Q07DX Z (ip), vehicle: saline) was 0 of 6, the survivor count (T/C endpoint: mean survival time, dose: 900.0 mg/kg/injection, schedule: Q01DX001 (ip), vehicle: saline) was 0 of 6 and the survivor count (T/C endpoint: mean survival time, dose: 1000.0 mg/kg/injection, schedule: Q01DX001 (ip), vehicle: saline) was 2 of 6. The survivor count (T/C endpoint: mean survival time, dose: 1000.0 mg/kg/injection, schedule: Q07DX Z (ip), vehicle: saline) was 0 of 6, the T/C (T/C endpoint: median survival time, dose: 20.0 mg/kg/injection, schedule: Q01DX009 (ip), vehicle: saline, evaluated on day 25) was 130 % of control and the T/C (T/C endpoint: median survival time, dose: 20.0 mg/kg/injection, schedule: Q01DX009 (ip), vehicle: saline, evaluated on day 30) was 137 % of control. For the same compound, the T/C (T/C endpoint: median survival time, dose: 22.5 mg/kg/injection, schedule: Q01DX009 (ip), vehicle: saline) was 133 % of control [5 of 6 alive], the T/C (T/C endpoint: median survival time, dose: 37.5 mg/kg/injection, schedule: Q07DX003 (ip), vehicle: saline, evaluated on day 7) was 137 % of control and the T/C (T/C endpoint: median survival time, dose: 37.5 mg/kg/injection, schedule: Q07DX003 (ip), vehicle: saline, evaluated on day 63) was 135 % of control. For the same compound, the T/C (T/C endpoint: median survival time, dose: 40.0 mg/kg/injection, schedule: Q01DX005 (ip), vehicle: saline) was 149 % of control, the T/C (T/C endpoint: median survival time, dose: 40.0 mg/kg/injection, schedule: Q01DX009 (ip), vehicle: saline, evaluated on day 25) was 150 % of control and the T/C (T/C endpoint: median survival time, dose: 40.0 mg/kg/injection, schedule: Q01DX009 (ip), vehicle: saline, evaluated on day 30) was 139, 149, 178 % of control. For the same compound, the T/C (T/C endpoint: median survival time, dose: 50.0 mg/kg/injection, schedule: Q01DX001 (ip), vehicle: saline, evaluated on day 7) was 115, 116, 117, 119, 127, 146 % of control, the T/C (T/C endpoint: median survival time, dose: 50.0 mg/kg/injection, schedule: Q01DX001 (ip), vehicle: saline, evaluated on day 26) was 115 % of control and the T/C (T/C endpoint: median survival time, dose: 50.0 mg/kg/injection, schedule: Q01DX001 (ip), vehicle: saline, evaluated on day 30) was 127 % of control. For the same compound, the T/C (T/C endpoint: median survival time, dose: 50.0 mg/kg/injection, schedule: Q01DX001 (ip), vehicle: saline, evaluated on day 35) was 119 % of control, the T/C (T/C endpoint: median survival time, dose: 50.0 mg/kg/injection, schedule: Q01DX001 (ip), vehicle: saline, evaluated on day 62) was 146 % of control and the T/C (T/C endpoint: median survival time, dose: 50.0 mg/kg/injection, schedule: Q01DX001 (ip), vehicle: saline, evaluated on day 63) was 116 [7 of 8 alive] and 117 % of control. For the same compound, the T/C (T/C endpoint: median survival time, dose: 50.0 mg/kg/injection, schedule: Q01DX001 (ip), vehicle: saline, evaluated on day 64) was 122 % of control, the T/C (T/C endpoint: median survival time, dose: 65.0 mg/kg/injection, schedule: Q01DX001 (ip), vehicle: saline, evaluated on day 7) was 124, 137, 138 % of control and the T/C (T/C endpoint: median survival time, dose: 65.0 mg/kg/injection, schedule: Q01DX001 (ip), vehicle: saline, evaluated on day 46) was 136 % of control. The T/C (T/C endpoint: median survival time, dose: 65.0 mg/kg/injection, schedule: Q01DX001 (ip), vehicle: saline, evaluated on day 69) was 144 % of control and the T/C (T/C endpoint: median survival time, dose: 65.0 mg/kg/injection, schedule: Q07DX003 (ip), vehicle: saline, evaluated on day 7) was 130, 133, 134 % of control.
